{"source": "patent US20020044973A1", "about": "“MICROPARTICLES AND THEIR USE IN CANCER TREATMENT” (priority 1997, published 2002)", "tested_on": "MCF7 cell line", "assay": "Cytotoxicity in doxorubicin-sensitive human breast cancer cell line (cell counting, Coulter Counter)", "format": "cell-based", "settings": "MCF7 parent cell line, 24 hours incubation, further 72 hours before counting", "data": [{"smiles": "COc1cccc2c1C(=O)c1c(O)c3c(c(O)c1C2=O)C[C@@](O)(C(=O)CO)C[C@@H]3O[C@H]1C[C@H](N)[C@H](O)[C@H](C)O1", "note": "[doxorubicin]", "values": [{"measurement": "IC50", "result": 0.031, "unit": "µg/mL"}]}]}
